Drawing on article doi:10.1101/2023.07.07.548106, this text covers binding for one molecule.

The target in this assay is T1, human CXCL17 (1-119) with a C-terminal His tag, expressed in CHO-761H cells (human), Q6UXB2.
T1 chain: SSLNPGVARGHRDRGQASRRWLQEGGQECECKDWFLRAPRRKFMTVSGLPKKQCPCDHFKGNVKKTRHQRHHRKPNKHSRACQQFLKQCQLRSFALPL
Briefly: reducing SDS-PAGE and Western blot. As to conditions: remark: other sources report otherwise.

No constants are given. Whether binding was seen depends on the method and setting. Some binding calls cover weakened binding; strength is not graded here. Tags and fused reporters may be left off the sequences shown.

B1: human CXCL17 (1-119) with a C-terminal His tag, expressed in CHO-761H cells, Q6UXB2 22-119 (protein)
chain: SSLNPGVARGHRDRGQASRRWLQEGGQECECKDWFLRAPRRKFMTVSGLPKKQCPCDHFKGNVKKTRHQRHHRKPNKHSRACQQFLKQCQLRSFALPL
With B1, the binding result is “binds”.
